The target of the assay is T1, CLV1, rBiFC construct (Arabidopsis) (UniProt Q9SYQ8).
T1 sequence: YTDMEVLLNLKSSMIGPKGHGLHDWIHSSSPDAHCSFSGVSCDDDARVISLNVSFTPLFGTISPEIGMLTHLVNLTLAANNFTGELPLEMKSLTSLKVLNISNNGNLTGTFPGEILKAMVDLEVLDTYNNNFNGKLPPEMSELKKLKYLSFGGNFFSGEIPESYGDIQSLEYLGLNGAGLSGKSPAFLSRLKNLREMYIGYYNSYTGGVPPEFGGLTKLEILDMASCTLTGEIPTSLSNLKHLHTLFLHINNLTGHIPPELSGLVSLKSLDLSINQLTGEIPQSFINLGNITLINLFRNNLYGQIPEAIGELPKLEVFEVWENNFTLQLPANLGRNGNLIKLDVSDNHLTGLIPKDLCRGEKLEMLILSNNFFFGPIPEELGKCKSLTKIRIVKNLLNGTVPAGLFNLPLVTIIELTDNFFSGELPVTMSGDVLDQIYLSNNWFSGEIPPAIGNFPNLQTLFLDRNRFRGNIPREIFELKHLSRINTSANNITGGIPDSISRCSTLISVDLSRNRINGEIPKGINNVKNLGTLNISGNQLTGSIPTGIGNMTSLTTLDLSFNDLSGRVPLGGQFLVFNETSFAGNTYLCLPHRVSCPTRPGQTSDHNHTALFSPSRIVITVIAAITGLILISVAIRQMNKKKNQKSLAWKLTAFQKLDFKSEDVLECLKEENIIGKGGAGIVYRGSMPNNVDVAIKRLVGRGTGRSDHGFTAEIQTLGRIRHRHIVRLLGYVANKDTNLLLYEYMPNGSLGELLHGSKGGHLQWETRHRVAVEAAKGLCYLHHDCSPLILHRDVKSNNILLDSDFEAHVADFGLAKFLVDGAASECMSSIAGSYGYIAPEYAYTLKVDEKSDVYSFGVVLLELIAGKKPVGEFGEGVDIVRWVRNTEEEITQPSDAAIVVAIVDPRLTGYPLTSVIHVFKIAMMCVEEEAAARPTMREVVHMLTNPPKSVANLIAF
Nature of the assay: split reporter.

These are yes or no findings as the source states them, for the method shown. Binding seen in cells or lysates may run through a third protein.

B1: AP-2M, rBiFC construct (protein, UniProt O23140 1-438)
chain: MPVAASAIYFLNLRGDVLINRTYRDDVGGNMVDAFRTHIMQTKELGNCPVRQIGGCSFVYMRISNVYIVIVVSSNANVACGFKFVVEAVALFKSYFGGAFDEDAIRNNFVLIYELLDEIMDFGYPQNLSPEILKLYITQEGVRSPFSSKPKDKPVPNATLQVTGAVGWRREGLAYKKNEVFLDIVESVNLLMSSKGNVLRCDVTGKVLMKCFLSGMPDLKLGLNDKIGLEKESEMKSRPAKSGKTIELDDVTFHQCVNLTRFNSEKTVSFVPPDGEFELMKYRITEGVNLPFRVLPTIKELGRTRMEVNVKVKSVFGAKMFALGVVVKIPVPKQTAKTNFQVTTGRAKYNPSIDCLVWKIRKFPGQTESTLSAEIELISTMGEKKSWTRPPIQMEFQVPMFTASGLRVRFLKVWEKSGYNTVEWVRYITKAGSYEIRC
Take B1: the binding entry was “no binding”.

Source of the values: paper doi:10.1101/2022.10.16.511936.
